Test results taken from the supplement of paper PMC10849652.
The other results are listed elsewhere or left out.

Amino acid sequences for entries named in this document (tags omitted). A change or cut given only in a name is not applied to a line headed by its entry.
UniProt Q96CP7: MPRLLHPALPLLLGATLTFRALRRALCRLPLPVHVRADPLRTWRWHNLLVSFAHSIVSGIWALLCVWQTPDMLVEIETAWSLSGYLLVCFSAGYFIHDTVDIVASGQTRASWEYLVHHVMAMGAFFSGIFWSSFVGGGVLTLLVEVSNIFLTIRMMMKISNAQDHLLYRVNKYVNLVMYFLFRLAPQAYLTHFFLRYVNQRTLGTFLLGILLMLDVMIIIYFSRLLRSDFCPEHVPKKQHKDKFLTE
UniProt Q92609: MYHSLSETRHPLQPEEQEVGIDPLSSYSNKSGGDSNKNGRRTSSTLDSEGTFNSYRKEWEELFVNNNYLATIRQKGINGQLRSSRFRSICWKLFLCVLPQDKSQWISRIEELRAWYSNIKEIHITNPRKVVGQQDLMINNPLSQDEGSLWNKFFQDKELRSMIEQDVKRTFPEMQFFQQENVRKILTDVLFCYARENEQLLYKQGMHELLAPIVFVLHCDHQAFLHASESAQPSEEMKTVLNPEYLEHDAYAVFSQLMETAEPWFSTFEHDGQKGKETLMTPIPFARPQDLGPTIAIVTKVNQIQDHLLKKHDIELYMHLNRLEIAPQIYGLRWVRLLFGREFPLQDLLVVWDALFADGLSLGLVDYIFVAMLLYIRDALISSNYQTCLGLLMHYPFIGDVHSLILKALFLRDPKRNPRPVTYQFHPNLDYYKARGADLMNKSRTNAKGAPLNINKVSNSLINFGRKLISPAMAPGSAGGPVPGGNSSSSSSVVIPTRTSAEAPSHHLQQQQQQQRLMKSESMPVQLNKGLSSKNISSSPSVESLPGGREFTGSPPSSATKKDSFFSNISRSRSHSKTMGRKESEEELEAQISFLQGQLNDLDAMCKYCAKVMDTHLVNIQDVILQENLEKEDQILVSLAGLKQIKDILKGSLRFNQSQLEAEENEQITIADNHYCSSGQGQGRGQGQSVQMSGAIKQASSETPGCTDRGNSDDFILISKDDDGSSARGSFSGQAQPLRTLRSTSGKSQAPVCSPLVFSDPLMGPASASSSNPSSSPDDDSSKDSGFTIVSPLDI
UniProt Q5JUR7: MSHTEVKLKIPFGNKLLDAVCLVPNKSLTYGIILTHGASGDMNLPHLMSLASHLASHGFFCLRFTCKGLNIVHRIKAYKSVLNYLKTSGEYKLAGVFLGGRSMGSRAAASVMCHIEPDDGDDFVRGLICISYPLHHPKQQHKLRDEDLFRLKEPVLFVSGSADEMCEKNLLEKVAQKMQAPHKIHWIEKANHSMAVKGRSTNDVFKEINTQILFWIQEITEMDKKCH
UniProt Q9NXF1: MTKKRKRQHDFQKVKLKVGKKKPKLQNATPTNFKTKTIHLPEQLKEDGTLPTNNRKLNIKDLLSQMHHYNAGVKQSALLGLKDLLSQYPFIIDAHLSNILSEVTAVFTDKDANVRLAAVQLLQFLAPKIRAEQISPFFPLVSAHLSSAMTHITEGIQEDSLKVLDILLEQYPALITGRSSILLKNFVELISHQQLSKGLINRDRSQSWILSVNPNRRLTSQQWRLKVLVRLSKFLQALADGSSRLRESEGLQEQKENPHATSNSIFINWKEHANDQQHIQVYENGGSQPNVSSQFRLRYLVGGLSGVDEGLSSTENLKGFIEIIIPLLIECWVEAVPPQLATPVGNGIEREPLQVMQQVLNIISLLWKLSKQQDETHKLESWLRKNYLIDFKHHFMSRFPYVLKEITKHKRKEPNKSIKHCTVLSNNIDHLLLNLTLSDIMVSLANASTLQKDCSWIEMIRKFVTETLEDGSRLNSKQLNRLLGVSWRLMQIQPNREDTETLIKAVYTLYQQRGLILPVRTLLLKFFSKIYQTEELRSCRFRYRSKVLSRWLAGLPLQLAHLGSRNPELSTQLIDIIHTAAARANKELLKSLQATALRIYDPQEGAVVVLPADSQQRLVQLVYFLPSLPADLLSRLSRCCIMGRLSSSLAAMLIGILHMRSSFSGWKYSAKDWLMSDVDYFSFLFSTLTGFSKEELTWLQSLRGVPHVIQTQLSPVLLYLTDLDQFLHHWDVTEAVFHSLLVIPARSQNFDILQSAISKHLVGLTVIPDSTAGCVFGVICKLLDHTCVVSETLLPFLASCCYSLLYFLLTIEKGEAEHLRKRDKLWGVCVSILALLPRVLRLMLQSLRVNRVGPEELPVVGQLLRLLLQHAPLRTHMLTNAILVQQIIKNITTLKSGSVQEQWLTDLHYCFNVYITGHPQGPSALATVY
UniProt Q9BVV7: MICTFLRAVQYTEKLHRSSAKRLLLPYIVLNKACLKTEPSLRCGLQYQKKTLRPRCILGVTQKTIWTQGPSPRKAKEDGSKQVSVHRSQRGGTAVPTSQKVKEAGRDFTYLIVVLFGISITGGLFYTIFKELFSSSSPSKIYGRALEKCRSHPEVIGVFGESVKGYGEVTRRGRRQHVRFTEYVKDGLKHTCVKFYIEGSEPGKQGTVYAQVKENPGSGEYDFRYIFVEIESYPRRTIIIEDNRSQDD
UniProt O95551: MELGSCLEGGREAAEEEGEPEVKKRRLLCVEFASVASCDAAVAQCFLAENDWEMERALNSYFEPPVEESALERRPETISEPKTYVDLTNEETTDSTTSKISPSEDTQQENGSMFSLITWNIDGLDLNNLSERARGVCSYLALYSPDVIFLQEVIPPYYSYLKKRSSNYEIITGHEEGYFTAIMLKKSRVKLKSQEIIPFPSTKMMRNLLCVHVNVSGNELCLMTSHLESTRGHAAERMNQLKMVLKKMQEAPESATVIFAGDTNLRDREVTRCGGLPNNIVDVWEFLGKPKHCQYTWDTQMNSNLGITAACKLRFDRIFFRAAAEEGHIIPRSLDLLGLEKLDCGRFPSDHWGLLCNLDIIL
UniProt Q99081: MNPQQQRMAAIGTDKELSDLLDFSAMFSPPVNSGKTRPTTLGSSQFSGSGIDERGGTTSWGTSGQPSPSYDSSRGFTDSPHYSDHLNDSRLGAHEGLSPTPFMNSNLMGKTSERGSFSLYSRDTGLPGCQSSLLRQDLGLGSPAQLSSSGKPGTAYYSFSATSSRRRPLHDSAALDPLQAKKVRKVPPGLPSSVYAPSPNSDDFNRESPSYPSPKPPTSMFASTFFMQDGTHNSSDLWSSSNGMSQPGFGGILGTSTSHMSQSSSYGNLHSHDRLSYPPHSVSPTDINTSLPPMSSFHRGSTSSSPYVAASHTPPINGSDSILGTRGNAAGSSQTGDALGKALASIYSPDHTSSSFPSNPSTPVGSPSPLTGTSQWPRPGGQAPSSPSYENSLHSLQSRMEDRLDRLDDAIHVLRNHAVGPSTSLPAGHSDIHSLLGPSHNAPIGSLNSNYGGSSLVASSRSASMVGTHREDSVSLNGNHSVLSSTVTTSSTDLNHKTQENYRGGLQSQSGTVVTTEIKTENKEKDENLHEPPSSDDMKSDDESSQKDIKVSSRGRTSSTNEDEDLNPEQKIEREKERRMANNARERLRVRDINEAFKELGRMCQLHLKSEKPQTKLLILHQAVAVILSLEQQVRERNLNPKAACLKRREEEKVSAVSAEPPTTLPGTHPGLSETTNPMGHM
UniProt Q01085: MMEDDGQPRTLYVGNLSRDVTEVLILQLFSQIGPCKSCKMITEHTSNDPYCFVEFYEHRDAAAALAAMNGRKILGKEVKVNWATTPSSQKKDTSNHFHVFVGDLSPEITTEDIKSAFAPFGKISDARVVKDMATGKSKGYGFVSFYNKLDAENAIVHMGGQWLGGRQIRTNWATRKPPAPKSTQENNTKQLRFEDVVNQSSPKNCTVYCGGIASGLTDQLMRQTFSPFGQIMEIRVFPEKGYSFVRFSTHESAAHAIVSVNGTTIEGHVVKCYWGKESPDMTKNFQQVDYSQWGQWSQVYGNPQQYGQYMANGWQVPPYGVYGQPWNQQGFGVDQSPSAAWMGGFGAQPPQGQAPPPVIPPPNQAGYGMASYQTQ
UniProt O60830: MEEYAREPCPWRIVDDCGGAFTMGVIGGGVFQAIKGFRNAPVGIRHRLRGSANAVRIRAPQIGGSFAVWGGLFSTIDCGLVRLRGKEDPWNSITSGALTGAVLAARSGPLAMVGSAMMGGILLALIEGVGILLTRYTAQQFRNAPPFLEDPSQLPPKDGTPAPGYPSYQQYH
UniProt Q9NQ88: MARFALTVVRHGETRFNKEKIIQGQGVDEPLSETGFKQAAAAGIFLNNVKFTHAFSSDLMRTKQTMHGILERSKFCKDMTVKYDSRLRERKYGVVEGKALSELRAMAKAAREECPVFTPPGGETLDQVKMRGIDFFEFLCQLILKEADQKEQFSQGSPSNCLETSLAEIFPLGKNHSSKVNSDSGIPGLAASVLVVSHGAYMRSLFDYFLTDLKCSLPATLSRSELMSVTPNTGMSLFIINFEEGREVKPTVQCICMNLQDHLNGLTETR
UniProt Q9Y5L4: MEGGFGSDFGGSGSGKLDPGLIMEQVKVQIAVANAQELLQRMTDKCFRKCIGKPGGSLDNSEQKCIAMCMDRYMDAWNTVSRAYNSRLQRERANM
UniProt O60907: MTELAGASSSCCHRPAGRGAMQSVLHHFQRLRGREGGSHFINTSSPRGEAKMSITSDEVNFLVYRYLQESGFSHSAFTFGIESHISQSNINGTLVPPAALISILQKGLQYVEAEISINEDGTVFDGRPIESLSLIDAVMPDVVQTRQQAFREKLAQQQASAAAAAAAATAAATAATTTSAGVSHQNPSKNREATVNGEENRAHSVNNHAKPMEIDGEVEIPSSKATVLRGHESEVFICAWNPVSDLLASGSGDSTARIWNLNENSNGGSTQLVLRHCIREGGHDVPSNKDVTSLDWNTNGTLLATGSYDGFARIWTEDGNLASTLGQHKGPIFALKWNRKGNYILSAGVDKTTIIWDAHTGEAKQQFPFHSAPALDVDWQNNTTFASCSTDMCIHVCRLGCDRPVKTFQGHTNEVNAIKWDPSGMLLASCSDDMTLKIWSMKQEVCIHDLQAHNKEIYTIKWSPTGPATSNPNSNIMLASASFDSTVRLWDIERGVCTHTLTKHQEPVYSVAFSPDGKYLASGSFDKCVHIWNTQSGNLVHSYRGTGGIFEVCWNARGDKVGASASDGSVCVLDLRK
UniProt Q9UGI8: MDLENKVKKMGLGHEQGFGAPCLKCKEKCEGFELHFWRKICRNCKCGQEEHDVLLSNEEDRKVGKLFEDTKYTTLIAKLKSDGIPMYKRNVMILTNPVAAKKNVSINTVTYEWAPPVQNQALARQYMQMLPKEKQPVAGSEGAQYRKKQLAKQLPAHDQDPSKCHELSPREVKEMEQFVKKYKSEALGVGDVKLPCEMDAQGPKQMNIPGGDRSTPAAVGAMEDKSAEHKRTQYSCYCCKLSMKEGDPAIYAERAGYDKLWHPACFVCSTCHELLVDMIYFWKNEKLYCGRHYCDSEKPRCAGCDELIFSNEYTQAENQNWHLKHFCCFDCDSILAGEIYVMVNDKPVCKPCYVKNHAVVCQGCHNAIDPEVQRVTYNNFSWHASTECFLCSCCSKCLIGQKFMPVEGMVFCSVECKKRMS
UniProt Q9P016: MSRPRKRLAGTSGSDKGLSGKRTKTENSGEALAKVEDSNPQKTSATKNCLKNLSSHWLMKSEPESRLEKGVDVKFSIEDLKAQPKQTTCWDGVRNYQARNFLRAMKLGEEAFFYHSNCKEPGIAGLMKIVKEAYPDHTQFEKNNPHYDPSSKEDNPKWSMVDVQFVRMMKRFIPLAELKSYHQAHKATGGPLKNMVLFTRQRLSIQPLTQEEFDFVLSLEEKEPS
UniProt Q9Y6I9: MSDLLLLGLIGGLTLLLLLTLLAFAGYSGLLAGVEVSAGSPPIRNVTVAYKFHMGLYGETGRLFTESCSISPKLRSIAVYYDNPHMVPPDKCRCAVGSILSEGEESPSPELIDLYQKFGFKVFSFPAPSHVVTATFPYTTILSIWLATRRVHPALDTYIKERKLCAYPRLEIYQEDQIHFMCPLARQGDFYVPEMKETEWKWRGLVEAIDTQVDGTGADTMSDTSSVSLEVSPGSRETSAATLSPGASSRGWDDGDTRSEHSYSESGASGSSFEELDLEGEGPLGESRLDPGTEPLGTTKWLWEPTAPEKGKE
UniProt Q99426: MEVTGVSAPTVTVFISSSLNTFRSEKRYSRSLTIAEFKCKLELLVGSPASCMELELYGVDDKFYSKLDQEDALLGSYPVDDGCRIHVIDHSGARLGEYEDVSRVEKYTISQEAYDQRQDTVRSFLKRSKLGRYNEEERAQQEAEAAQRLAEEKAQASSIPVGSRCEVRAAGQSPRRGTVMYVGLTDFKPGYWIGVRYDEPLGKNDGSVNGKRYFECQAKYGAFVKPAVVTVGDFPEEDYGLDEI
UniProt Q6I9Y2: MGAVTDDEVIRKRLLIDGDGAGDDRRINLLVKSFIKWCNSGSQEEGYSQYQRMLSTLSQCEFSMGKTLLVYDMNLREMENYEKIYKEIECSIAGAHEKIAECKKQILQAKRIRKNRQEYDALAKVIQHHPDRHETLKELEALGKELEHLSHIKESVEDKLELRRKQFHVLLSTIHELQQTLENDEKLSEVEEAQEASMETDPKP

How the values were obtained:
Test in all cases: log2 fold change, soluble protein after heating vs DMSO (PISA); higher = thermal stabilisation; K562 cells, 10 uM, 30 min; active = over 0.2 and 3.5 SD of the protein, either way, in both replicates (recomputed)
bafetinib = compound: Cc1ccc(NC(=O)c2ccc(CN3CC[C@H](N(C)C)C3)c(C(F)(F)F)c2)cc1Nc1nccc(-c2cncnc2)n1 [bafetinib]
Procedure, shortened: (§1)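 Soluble protein was quantified by TMTpro 16plex LC-MS/MS after channel sums were equalised. It was obtained as the supernatant after 21,000xg for 90 min from pooled aliquots of K562 cells (2×10^6 cells/mL, 10 μM compound, 30 min) heated for 3 min across 48°C-58°C and extracted in PBS with 0.5% NP-40 at 4°C. Thermal stability values are relative to control samples and come from duplicates. They are given as log2 fold changes.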

[1] = compound: Cc1cccc(CC(=O)N2CCc3c2ccc(-c2cn(C)c4ncnc(N)c24)c3F)n1
Procedure, shortened: as §1

nilotinib = compound: Cc1cn(-c2cc(NC(=O)c3ccc(C)c(Nc4nccc(-c5cccnc5)n4)c3)cc(C(F)(F)F)c2)cn1 [nilotinib]
Procedure, shortened: as §1

[2] = compound: Cc1nc(Nc2n[nH]c3c2CN(C(=O)N[C@H](CN(C)C)c2ccccc2)C3(C)C)c2sccc2n1
Procedure, shortened: as §1

dasatinib = compound: Cc1nc(Nc2ncc(C(=O)Nc3c(C)cccc3Cl)s2)cc(N2CCN(CCO)CC2)n1 [dasatinib]
Procedure, shortened: as §1

[3] = compound: Cc1ncc(-c2ccnc(Nc3ccc(S(C)(=O)=O)cc3)n2)n1C(C)C
Procedure, shortened: as §1

[4] = compound: Cn1cc(-c2ccc3c(c2)CCN3C(=O)Cc2cccc(C(F)(F)F)c2)c2c(N)ncnc21
Procedure, shortened: as §1

[5] = compound: Cn1cc(-c2ccc3nnc(C(F)(F)c4ccc5ncccc5c4)n3n2)cn1
Procedure, shortened: as §1

tipifarnib = compound: Cn1cncc1[C@@](N)(c1ccc(Cl)cc1)c1ccc2c(c1)c(-c1cccc(Cl)c1)cc(=O)n2C [tipifarnib]
Procedure, shortened: as §1

mubritinib = compound: FC(F)(F)c1ccc(/C=C/c2nc(COc3ccc(CCCCn4ccnn4)cc3)co2)cc1 [mubritinib]
Procedure, shortened: as §1

Target | log2 fold change (bafetinib) | log2 fold change [1] | log2 fold change (nilotinib) | log2 fold change [2] | log2 fold change (dasatinib) | log2 fold change [3] | log2 fold change [4] | log2 fold change [5] | log2 fold change (tipifarnib) | log2 fold change (mubritinib)
TLCD1 (UniProt Q96CP7) | inactive: -0.019 | inactive: -0.005 | inactive: -0.021 | inactive: 0.052 | inactive: 0.043 | inactive: 0.054 | inactive: 0.017 | inactive: -0.098 | inactive: 0.143 | inactive: 0.019
TBC1D5 isoform 2 (UniProt Q92609) | inactive: -0.126 | inactive: 0.017 | inactive: -0.076 | inactive: -0.052 | inactive: -0.232 | inactive: 0.007 | inactive: -0.067 | inactive: -0.005 | inactive: -0.177 | inactive: -0.017
TIA1 (UniProt P31483) | inactive: -0.068 | inactive: 0.071 | inactive: -0.004 | inactive: 0.05 | inactive: -0.025 | inactive: 0.053 | inactive: 0.056 | inactive: 0.097 | inactive: 0 | inactive: 0.01
TK1 (UniProt K7ERV3) | inactive: -0.03 | inactive: 0.022 | inactive: -0.108 | inactive: -0.018 | inactive: 0.018 | inactive: -0.076 | inactive: 0.176 | inactive: 0.016 | inactive: 0.03 | inactive: 0.037
TCERG1 (UniProt O14776) | inactive: 0.03 | inactive: 0.077 | inactive: -0.093 | inactive: -0.24 | inactive: -0.26 | inactive: 0.02 | inactive: 0.088 | inactive: 0.07 | inactive: -0.097 | inactive: 0.183
TEX30 (UniProt Q5JUR7) | inactive: -0.01 | inactive: -0.053 | inactive: -0.147 | inactive: -0.095 | inactive: -0.2 | inactive: -0.016 | inactive: 0.084 | inactive: -0.004 | inactive: -0.18 | inactive: 0.033
TEX10 (UniProt Q9NXF1) | inactive: 0.009 | inactive: 0.004 |  |  |  |  |  |  |  | 
TBC1D15 isoform 3 (UniProt Q8TC07) | inactive: -0.026 | inactive: 0.059 | inactive: -0.116 | inactive: -0.098 | inactive: -0.133 | inactive: -0.004 | inactive: -0.052 | inactive: 0.011 | inactive: -0.134 | inactive: 0.054
TCEA1 (UniProt P23193) | inactive: -0.025 | inactive: 0.002 | inactive: -0.009 | inactive: -0.082 | inactive: -0.004 | inactive: -0.007 | inactive: 0.024 | inactive: 0.01 | inactive: 0.049 | inactive: 0.038
THOC5 (UniProt Q13769) | inactive: -0.07 | inactive: 0.017 | inactive: 0.032 | inactive: -0.039 | inactive: -0.001 | inactive: -0.011 | inactive: 0.001 | inactive: -0.08 | inactive: -0.005 | inactive: -0.003
TIMM21 (UniProt Q9BVV7) | inactive: -0.149 | inactive: 0.058 | inactive: -0.011 | inactive: -0.014 | inactive: 0.011 | inactive: -0.003 | inactive: 0.025 | inactive: 0.074 | inactive: 0.055 | inactive: -0.011
TDP2 isoform 2 (UniProt O95551) | inactive: -0.006 | inactive: 0.035 | inactive: -0.039 | inactive: 0.003 | inactive: -0.092 | inactive: -0.087 | inactive: 0.075 | inactive: -0.037 | inactive: -0.095 | inactive: 0.098
TCF12 isoform 3 (UniProt Q99081) | inactive: -0.103 | inactive: 0.026 | inactive: -0.026 | inactive: 0.133 | inactive: -0.143 | inactive: -0.007 | inactive: -0.058 | inactive: -0.018 | inactive: -0.068 | inactive: -0.001
TIAL1 isoform 2 (UniProt Q01085) | inactive: -0.072 | inactive: -0.028 | inactive: -0.023 | inactive: 0.036 | inactive: -0.021 | inactive: 0.074 | inactive: 0.009 | inactive: -0.001 | inactive: 0.015 | inactive: 0.013
TBC1D23 (UniProt Q9NUY8) | inactive: -0.141 | inactive: 0.041 | inactive: -0.113 | inactive: -0.032 | inactive: -0.155 | inactive: -0.056 | inactive: 0.025 | inactive: 0.006 | inactive: 0.003 | inactive: -0.011
TIMM17B (UniProt O60830) | inactive: -0.05 | inactive: 0 | inactive: 0.021 | inactive: -0.085 | inactive: 0.026 | inactive: -0.003 | inactive: -0.026 | inactive: 0.059 | inactive: 0.029 | inactive: 0.039
TIGAR (UniProt Q9NQ88) | inactive: -0.083 | inactive: -0.086 |  |  |  |  |  |  |  | 
TKFC (UniProt Q3LXA3) | inactive: -0.023 | inactive: 0.018 | inactive: 0.003 | inactive: 0.007 | inactive: 0.002 | inactive: 0.001 | inactive: 0.029 | inactive: 0.034 | inactive: -0.05 | inactive: 0.036
TIMM13 (UniProt Q9Y5L4) | inactive: 0.086 | inactive: 0.156 | inactive: 0.018 | inactive: -0.017 | inactive: 0 | inactive: 0.035 | inactive: 0.07 | inactive: -0.003 | inactive: -0.111 | inactive: 0.005
TBL1X (UniProt O60907) | inactive: -0.052 | inactive: 0.061 | inactive: -0.026 | inactive: -0.001 | inactive: -0.042 | inactive: -0.017 | inactive: 0.018 | inactive: -0.039 | inactive: 0.02 | inactive: 0.056
TGM2 (UniProt P21980) | inactive: -0.055 | inactive: 0.032 | inactive: -0.011 | inactive: -0.033 | inactive: -0.029 | inactive: -0.006 | inactive: 0.035 | inactive: -0.014 | inactive: -0.023 | inactive: 0.005
TES (UniProt Q9UGI8) | inactive: -0.058 | inactive: 0.007 | inactive: 0.021 | inactive: -0.033 | inactive: -0.014 | inactive: 0.005 | inactive: 0.014 | inactive: 0.045 | inactive: -0.019 | inactive: 0.038
TBC1D22B (UniProt Q9NU19) | inactive: 0.016 | inactive: 0.027 | inactive: -0.038 | inactive: -0.099 | inactive: -0.124 | inactive: 0.003 | inactive: -0.018 | inactive: -0.163 | inactive: -0.065 | inactive: 0.002
THYN1 (UniProt Q9P016) | inactive: 0.009 | inactive: -0.028 | inactive: -0.021 | inactive: 0.044 | inactive: -0.097 | inactive: -0.009 | inactive: -0.015 | inactive: 0.013 | inactive: -0.036 | inactive: 0.031
THNSL1 (UniProt Q8IYQ7) | inactive: 0.062 | inactive: -0.038 | inactive: 0.113 | inactive: 0.017 | inactive: -0.081 | inactive: -0.02 | inactive: 0.052 | inactive: -0.015 | inactive: -0.021 | inactive: -0.048
TCP1 (UniProt P17987) | inactive: -0.002 | inactive: 0.035 | inactive: -0.068 | inactive: 0.026 | inactive: -0.008 | inactive: 0.003 | inactive: 0.009 | inactive: 0.003 | inactive: -0.016 | inactive: -0.007
TEX264 (UniProt Q9Y6I9) | inactive: 0.391 | inactive: 0.007 | inactive: 0.241 | inactive: 0.111 | inactive: 0.265 | active: 0.845 | inactive: 0.047 | inactive: 0.114 | inactive: -0.006 | inactive: 0.047
TBCB (UniProt Q99426) | inactive: -0.074 | inactive: 0.01 | inactive: -0.003 | inactive: -0.098 | inactive: -0.069 | inactive: -0.051 | inactive: 0 | inactive: 0.018 | inactive: -0.025 | inactive: 0.07
THOC7 (UniProt Q6I9Y2) | inactive: -0.015 | inactive: 0.066 | inactive: 0 | inactive: 0.016 | inactive: 0.03 | inactive: -0.049 | inactive: -0.014 | inactive: -0.078 | inactive: 0.098 | inactive: 0

Part of the list above, tab-delimited:
Target	log2 fold change (bafetinib)	log2 fold change [1]	log2 fold change (nilotinib)	log2 fold change [2]	log2 fold change (dasatinib)	log2 fold change [3]	log2 fold change [4]	log2 fold change [5]	log2 fold change (tipifarnib)	log2 fold change (mubritinib)
TBC1D5 isoform 2 (UniProt Q92609)	inactive: -0.126	inactive: 0.017	inactive: -0.076	inactive: -0.052	inactive: -0.232	inactive: 0.007	inactive: -0.067	inactive: -0.005	inactive: -0.177	inactive: -0.017
THNSL1 (UniProt Q8IYQ7)	inactive: 0.062	inactive: -0.038	inactive: 0.113	inactive: 0.017	inactive: -0.081	inactive: -0.02	inactive: 0.052	inactive: -0.015	inactive: -0.021	inactive: -0.048
